Reference: paper PMC8789826
No constants are given. Whether binding was seen depends on the method and setting. For some of these results: Binding seen in cells or lysates may run through a third protein. Some results given as binding are weak or reduced against the parent protein; the word gives no strength.

Chains of the proteins cited; added tags and fusions are not shown. Lines headed by an entry give the natural chain unless they say otherwise; changes in a name come on top. Residues count along the entry.
UniProt Q96RT7: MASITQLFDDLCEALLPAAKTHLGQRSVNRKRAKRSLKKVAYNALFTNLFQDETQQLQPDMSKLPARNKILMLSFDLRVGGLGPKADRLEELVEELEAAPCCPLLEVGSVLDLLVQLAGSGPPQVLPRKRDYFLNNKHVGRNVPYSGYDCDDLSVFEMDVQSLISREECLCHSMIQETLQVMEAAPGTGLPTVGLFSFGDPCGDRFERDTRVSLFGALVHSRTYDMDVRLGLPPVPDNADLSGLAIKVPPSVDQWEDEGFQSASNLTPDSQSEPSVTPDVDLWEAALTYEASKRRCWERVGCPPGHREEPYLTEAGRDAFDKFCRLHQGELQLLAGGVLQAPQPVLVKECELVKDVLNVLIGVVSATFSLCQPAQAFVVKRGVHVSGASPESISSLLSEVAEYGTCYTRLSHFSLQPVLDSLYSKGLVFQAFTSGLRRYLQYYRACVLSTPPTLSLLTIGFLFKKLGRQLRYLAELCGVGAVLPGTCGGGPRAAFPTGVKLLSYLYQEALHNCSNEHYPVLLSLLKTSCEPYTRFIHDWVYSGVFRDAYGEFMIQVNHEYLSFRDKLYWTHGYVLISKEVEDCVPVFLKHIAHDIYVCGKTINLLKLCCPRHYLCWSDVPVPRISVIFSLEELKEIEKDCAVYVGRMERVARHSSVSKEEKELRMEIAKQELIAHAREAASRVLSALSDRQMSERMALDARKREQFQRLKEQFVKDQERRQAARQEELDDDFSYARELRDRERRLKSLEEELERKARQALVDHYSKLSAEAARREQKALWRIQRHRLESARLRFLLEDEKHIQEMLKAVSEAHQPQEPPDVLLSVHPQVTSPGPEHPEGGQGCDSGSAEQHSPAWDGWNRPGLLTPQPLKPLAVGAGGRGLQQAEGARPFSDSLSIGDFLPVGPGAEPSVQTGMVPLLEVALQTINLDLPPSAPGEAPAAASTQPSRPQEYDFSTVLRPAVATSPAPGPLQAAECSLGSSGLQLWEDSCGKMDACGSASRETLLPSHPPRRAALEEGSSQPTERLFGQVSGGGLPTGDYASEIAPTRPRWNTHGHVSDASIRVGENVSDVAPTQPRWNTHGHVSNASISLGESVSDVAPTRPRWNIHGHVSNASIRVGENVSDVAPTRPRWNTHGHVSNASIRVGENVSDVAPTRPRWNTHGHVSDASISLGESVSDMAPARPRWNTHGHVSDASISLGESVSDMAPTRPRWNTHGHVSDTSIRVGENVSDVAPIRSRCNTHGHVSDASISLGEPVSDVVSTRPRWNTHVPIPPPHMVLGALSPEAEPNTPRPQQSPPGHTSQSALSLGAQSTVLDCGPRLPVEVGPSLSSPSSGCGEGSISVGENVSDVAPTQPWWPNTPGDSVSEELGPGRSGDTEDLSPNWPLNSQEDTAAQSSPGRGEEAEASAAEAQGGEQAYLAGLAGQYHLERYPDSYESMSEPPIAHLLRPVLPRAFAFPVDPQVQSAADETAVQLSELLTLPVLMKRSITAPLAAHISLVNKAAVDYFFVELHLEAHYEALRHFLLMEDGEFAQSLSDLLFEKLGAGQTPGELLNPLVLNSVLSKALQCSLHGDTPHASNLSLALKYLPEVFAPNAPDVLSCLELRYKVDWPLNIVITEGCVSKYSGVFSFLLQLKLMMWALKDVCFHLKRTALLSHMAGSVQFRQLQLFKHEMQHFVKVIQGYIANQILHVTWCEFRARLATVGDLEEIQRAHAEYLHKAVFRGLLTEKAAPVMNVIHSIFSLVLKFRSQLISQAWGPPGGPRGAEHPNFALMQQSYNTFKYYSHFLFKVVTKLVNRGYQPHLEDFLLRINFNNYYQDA
ΔN56-GCP6: residues 57-1819 of Q96RT7
UniProt Q9UGJ1: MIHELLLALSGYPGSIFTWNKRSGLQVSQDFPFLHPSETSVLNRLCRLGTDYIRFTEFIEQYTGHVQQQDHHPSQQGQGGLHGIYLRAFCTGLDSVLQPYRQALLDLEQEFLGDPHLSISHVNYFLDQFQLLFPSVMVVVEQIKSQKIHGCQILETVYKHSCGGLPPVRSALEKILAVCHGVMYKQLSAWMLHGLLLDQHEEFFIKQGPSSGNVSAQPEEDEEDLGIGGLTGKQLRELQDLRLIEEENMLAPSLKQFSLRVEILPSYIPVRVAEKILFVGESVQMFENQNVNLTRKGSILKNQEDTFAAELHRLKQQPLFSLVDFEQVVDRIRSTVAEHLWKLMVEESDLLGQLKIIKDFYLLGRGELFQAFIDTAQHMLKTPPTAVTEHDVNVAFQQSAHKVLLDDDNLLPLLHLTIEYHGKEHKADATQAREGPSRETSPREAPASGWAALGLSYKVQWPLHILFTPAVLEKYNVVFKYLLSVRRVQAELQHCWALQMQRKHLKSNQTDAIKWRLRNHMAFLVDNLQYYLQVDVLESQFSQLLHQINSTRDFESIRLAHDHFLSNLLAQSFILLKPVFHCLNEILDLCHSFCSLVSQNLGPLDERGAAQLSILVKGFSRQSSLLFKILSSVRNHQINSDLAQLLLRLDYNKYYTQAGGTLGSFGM
UniProt Q96RT8: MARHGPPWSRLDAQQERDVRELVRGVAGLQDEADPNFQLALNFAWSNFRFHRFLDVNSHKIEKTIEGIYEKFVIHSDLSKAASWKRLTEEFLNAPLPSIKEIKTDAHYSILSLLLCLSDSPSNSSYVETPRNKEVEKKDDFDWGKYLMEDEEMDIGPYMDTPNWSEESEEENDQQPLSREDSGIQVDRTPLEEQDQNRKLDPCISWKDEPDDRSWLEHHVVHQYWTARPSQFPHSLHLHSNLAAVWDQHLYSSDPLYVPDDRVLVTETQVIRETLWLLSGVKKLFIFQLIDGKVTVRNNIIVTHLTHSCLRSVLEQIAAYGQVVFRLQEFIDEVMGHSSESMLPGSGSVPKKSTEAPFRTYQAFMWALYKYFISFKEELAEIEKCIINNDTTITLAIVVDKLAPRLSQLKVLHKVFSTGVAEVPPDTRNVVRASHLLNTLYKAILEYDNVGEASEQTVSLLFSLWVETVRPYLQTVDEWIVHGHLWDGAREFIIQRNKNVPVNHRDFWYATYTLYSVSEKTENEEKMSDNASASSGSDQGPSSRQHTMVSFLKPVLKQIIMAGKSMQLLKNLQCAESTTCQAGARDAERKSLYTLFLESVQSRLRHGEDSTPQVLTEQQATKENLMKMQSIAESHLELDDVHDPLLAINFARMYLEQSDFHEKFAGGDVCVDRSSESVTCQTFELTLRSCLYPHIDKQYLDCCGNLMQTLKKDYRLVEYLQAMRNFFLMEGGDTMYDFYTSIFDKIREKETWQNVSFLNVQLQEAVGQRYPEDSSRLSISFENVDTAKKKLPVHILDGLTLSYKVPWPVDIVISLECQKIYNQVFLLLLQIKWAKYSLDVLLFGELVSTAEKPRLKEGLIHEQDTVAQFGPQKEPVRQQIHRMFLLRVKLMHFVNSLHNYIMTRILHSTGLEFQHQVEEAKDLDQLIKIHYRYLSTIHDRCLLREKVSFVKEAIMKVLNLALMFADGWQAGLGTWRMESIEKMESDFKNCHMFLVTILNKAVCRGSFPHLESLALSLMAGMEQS
UniProt Q96CW5: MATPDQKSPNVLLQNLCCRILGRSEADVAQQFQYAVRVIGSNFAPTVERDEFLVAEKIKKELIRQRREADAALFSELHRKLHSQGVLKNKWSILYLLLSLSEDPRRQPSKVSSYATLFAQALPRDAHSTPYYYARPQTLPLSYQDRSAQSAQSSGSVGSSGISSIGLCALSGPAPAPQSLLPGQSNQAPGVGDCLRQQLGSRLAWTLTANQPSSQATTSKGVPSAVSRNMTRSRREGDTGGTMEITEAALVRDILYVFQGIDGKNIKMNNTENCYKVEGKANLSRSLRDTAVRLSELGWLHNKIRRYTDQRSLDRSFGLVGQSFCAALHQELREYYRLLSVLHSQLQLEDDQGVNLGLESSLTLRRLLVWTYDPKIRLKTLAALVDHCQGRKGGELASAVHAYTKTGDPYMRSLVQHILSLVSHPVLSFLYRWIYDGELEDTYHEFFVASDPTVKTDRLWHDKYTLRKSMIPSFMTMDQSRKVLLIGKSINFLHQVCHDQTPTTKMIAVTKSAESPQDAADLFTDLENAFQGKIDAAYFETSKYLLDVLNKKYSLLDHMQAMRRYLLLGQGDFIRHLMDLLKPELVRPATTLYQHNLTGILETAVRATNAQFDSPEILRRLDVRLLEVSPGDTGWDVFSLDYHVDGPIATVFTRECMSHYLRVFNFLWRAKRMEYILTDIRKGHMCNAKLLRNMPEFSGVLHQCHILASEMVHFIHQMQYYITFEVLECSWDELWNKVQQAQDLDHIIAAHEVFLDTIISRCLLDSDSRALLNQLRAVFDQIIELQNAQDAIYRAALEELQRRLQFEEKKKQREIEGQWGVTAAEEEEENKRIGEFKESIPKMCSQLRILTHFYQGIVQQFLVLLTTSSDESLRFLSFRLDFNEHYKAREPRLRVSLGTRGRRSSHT
UniProt Q08AG7: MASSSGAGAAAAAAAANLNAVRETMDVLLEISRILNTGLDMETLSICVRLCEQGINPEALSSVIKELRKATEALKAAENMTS

What was measured:
[1] = target: GCP6 (TUBGCP6), full-length (human) (UniProt Q96RT7); assay: cryo-EM structure; recombinant human wild-type γ-TuRC and its assembly intermediates (6 to 14 spokes), purified from Sf21 cells via 2xFLAG-GCP5; single-particle analysis, 5.3-16.1 Å; published atomic models fitted as rigid bodies and flexibly fitted; both purified
GCP4 (TUBGCP4) (human) = GCP4 (TUBGCP4) (human) (UniProt Q9UGJ1); assay: as above
[2] = target: GCP6 (TUBGCP6), full-length (human) (UniProt Q96RT7); assay: cryo-EM structure; recombinant human γ-TuRC^∆GCP2/3 (GCP2 and GCP3 omitted from the expression system), 4-spoke assembly, 7.8 Å global resolution; both purified
[3] = target: 2xFLAG-GCP5 (2xFLAG-TUBGCP5) (human) (UniProt Q96RT8); assay: as above
[4] = target: 2xFLAG-GCP5 (2xFLAG-TUBGCP5) (human) (UniProt Q96RT8); assay: co-IP; γ-TuRC^∆GCP2/3 from Sf21 lysate on Anti-FLAG M2 Affinity Gel via 2xFLAG-GCP5, eluted with 3xFLAG peptide; Coomassie-stained SDS-PAGE and immunoblot
ΔN56-GCP6 (human) = ΔN56-GCP6 (human) (UniProt Q96RT7); assay: cryo-EM structure; recombinant human γ-TuRC^ΔN56-GCP6 (full-length GCP6 replaced by ΔN56-GCP6; ACTB co-expressed), fully assembled 14-spoke complex, 7.1 Å global resolution; both purified
[5] = target: 2xFLAG-GCP5 (2xFLAG-TUBGCP5) (human) (UniProt Q96RT8); assay: cryo-EM structure; recombinant human wild-type γ-TuRC and its assembly intermediates (6 to 14 spokes), purified from Sf21 cells via 2xFLAG-GCP5; single-particle analysis, 5.3-16.1 Å; published atomic models fitted as rigid bodies and flexibly fitted; both purified

Row | binding [1] | binding (GCP4 (TUBGCP4) (human)) | binding [4] | Substance | other results
1 | – | binds | – | GCP3 (TUBGCP3) (from UniProt Q96CW5 1-907) | –
2 | binds | – | binds | GCP4 (TUBGCP4) (from UniProt Q9UGJ1 1-667) | binding [2]: binds; binding [3]: binds; binding (ΔN56-GCP6 (human)): binds; binding [5]: binds

The remaining lines, values behind:

Row | Substance | binding [1] | binding (GCP4 (TUBGCP4) (human)) | binding [4] | other results
3 | 2xFLAG-GCP5 (2xFLAG-TUBGCP5) (from UniProt Q96RT8 1-1024) | binds | – | – | –
4 | GCP6 (TUBGCP6), full-length (from UniProt Q96RT7 1-1819) | – | – | binds | –
5 | MZT1-GCP5 module (in the recombinant γ-TuRC) (from UniProt Q08AG7 6-82; Q96RT8 1-1024) (complex) | – | binds | – | –
